Common to all, as to assay: PRISMA enrichment of interactor (LFQ) in peptide spot vs all other peptide spots (log2 fold change); higher = stronger / more specific binding of the interactor to the peptide
One assay deals with ADNP, Q9H2P0. As to the method:
(§1)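 PRISMA: 15-aa overlapping tiles (offset 8 aa) of 60 microproteins, plus SOS1/GLUT1 control peptides, were spot-synthesized on cellulose membranes in triplicate. Membranes were incubated with benzonase-treated HEK293T lysate, and bound proteins were identified by LC-MS/MS with LFQ. Enrichment is the log2 fold change of each protein in one spot versus all other spots. Only interactors passing the significance cutoff are listed.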

Protein sequences, listed by entry. Tags and fused reporters are not part of them.
CUL4A, Q13619, UniProt Q13619, whole entry: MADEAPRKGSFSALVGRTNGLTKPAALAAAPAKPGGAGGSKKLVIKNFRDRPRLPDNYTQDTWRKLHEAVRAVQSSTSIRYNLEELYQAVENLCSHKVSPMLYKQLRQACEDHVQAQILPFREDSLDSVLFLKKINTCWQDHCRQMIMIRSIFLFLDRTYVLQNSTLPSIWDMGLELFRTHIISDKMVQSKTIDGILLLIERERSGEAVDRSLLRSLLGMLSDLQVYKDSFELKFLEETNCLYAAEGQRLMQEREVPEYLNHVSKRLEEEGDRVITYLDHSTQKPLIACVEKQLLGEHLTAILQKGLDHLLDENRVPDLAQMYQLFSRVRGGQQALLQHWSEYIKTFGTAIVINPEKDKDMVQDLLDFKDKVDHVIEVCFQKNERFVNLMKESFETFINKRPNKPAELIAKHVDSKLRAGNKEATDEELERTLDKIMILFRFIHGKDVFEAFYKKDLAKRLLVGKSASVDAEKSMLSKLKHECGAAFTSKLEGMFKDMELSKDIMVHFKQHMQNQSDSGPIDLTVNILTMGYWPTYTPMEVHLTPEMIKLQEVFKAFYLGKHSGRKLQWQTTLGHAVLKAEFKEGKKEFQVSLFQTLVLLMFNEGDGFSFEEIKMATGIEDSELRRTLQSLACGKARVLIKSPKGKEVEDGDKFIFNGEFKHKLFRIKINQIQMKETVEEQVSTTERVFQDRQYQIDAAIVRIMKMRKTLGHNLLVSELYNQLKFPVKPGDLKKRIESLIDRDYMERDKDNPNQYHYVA
EIF3A, Q14152, UniProt Q14152, whole entry: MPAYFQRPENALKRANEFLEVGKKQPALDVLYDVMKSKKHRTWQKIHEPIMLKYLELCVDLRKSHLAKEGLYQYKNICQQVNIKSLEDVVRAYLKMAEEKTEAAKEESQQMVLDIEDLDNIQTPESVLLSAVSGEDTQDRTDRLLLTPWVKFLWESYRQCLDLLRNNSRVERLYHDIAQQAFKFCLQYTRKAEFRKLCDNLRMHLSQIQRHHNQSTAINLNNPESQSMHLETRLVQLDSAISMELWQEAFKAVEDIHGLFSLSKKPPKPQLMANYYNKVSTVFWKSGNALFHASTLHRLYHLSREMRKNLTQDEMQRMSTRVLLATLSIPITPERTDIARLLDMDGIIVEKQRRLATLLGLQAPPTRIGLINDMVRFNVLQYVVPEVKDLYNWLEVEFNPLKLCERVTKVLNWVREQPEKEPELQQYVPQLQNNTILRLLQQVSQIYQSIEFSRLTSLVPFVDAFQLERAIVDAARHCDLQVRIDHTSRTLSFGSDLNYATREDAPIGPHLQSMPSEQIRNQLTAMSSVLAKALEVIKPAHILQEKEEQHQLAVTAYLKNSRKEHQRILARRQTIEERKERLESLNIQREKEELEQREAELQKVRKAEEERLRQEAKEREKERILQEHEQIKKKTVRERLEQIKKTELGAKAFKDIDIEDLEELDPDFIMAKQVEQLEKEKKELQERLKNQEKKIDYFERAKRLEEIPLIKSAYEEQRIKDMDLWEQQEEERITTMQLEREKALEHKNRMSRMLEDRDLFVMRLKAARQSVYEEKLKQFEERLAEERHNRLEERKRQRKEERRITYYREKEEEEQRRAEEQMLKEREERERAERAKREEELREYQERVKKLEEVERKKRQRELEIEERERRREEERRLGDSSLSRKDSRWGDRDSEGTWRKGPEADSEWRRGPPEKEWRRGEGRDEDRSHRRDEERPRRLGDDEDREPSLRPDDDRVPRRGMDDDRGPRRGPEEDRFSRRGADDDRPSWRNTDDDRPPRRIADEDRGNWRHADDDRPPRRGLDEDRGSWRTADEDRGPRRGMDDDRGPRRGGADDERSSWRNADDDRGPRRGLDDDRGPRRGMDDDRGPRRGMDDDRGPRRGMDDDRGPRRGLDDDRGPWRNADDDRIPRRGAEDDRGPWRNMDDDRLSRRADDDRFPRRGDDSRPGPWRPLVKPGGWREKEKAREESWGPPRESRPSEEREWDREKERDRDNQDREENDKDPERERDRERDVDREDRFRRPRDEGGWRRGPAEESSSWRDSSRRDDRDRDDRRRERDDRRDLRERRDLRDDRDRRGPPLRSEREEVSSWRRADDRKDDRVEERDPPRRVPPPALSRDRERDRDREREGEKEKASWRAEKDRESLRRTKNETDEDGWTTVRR
EIF4E, P06730, UniProt P06730, whole entry: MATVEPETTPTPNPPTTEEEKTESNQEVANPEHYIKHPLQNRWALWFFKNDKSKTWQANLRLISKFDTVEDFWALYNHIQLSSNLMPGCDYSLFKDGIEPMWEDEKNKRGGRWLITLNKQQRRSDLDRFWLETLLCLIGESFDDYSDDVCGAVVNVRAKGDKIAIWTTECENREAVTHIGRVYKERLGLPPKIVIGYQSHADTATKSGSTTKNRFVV
SMARCA5, O60264, UniProt O60264, whole entry: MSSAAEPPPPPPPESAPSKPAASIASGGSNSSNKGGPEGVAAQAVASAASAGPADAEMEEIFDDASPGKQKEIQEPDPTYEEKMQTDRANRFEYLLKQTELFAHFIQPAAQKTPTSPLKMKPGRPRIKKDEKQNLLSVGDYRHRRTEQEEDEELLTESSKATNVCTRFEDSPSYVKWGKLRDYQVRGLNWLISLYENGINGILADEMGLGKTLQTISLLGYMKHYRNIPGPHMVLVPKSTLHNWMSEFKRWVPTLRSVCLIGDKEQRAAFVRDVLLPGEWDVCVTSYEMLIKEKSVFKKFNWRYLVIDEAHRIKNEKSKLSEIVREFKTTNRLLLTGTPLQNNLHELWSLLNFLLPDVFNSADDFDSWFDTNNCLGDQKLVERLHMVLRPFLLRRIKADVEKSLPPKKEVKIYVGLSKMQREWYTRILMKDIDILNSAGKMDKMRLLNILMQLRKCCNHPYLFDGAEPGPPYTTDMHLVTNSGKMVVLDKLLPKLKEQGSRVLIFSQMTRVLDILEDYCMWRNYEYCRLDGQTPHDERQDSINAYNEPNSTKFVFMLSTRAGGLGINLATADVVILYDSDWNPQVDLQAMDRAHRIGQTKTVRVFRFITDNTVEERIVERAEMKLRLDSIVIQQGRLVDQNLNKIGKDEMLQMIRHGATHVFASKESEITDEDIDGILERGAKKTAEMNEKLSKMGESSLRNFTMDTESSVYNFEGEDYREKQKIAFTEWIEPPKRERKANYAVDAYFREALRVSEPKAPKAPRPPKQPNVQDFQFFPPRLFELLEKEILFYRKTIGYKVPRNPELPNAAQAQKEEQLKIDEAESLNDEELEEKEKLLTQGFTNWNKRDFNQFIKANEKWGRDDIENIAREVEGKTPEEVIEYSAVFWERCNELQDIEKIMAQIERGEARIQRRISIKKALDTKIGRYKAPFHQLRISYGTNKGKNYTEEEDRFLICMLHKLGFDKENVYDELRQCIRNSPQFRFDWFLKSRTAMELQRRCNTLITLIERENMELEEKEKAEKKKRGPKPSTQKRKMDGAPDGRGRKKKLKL
TUBB4A, P04350, UniProt P04350, whole entry: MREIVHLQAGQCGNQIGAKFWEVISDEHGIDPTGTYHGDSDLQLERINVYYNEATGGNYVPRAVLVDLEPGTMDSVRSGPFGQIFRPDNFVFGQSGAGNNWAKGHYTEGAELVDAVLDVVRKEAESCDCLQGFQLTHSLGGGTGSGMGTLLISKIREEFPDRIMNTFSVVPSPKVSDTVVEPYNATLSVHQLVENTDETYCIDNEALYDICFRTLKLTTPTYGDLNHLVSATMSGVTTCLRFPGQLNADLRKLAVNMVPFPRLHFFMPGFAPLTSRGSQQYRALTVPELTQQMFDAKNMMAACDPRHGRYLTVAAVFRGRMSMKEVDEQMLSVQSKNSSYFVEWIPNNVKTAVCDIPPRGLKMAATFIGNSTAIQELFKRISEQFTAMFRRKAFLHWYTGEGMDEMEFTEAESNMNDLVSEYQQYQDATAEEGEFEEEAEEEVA
TUBB6, Q9BUF5, UniProt Q9BUF5, whole entry: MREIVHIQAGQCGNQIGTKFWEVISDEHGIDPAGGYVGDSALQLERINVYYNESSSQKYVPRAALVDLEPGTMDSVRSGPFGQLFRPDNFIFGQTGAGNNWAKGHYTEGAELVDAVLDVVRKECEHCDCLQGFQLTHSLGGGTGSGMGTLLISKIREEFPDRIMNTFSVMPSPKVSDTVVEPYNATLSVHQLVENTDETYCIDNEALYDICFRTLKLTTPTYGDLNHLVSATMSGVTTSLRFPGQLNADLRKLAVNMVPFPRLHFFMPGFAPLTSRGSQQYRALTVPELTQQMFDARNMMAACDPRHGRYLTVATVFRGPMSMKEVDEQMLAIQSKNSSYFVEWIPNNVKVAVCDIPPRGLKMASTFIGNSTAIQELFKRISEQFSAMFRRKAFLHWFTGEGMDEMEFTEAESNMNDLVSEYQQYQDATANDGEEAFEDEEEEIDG
ACTR1A, P61163, UniProt P61163, whole entry: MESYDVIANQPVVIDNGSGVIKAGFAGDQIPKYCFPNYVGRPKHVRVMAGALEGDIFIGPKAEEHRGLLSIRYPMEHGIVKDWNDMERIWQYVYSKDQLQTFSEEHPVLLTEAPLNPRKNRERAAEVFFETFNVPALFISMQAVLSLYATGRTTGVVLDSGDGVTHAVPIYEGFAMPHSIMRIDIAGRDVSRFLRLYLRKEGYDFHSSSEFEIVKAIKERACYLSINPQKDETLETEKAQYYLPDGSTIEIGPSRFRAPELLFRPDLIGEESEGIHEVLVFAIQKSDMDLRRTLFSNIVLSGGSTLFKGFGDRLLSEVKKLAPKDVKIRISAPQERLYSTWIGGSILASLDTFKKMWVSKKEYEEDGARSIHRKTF
GTF2F1, P35269, UniProt P35269, whole entry: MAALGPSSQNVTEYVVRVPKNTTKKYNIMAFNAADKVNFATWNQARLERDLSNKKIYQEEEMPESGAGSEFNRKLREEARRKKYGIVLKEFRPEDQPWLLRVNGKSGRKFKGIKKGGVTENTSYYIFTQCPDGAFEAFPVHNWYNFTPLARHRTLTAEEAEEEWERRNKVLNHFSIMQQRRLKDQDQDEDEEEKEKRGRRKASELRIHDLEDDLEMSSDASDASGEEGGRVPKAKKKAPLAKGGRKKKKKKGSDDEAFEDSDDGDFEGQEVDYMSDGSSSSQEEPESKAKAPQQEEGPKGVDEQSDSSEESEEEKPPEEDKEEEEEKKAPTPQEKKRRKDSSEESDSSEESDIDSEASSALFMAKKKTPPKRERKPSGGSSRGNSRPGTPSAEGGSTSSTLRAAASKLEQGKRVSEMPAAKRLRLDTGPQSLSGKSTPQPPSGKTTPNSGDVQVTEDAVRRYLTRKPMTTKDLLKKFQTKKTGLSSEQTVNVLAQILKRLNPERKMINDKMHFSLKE
PDLIM7, Q9NR12, UniProt Q9NR12, whole entry: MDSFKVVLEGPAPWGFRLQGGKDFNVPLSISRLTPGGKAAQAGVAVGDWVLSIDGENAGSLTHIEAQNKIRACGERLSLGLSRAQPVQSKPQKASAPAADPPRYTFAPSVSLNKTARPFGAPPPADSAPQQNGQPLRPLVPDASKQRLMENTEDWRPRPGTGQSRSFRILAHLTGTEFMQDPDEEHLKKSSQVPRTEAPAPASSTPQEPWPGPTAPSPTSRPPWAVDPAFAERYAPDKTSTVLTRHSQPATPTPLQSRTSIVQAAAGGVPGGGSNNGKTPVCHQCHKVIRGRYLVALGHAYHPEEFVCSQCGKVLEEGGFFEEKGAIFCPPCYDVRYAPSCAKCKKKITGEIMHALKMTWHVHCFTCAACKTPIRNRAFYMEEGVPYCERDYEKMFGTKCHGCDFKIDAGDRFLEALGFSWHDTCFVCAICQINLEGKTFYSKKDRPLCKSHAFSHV
RAB7A, P51149, UniProt P51149, whole entry: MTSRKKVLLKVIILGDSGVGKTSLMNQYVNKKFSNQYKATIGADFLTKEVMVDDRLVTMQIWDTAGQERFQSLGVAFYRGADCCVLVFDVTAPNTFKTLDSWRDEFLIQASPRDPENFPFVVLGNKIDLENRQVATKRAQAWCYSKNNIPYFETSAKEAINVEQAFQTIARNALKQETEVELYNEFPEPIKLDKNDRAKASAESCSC
TUBA1C, Q9BQE3, UniProt Q9BQE3, whole entry: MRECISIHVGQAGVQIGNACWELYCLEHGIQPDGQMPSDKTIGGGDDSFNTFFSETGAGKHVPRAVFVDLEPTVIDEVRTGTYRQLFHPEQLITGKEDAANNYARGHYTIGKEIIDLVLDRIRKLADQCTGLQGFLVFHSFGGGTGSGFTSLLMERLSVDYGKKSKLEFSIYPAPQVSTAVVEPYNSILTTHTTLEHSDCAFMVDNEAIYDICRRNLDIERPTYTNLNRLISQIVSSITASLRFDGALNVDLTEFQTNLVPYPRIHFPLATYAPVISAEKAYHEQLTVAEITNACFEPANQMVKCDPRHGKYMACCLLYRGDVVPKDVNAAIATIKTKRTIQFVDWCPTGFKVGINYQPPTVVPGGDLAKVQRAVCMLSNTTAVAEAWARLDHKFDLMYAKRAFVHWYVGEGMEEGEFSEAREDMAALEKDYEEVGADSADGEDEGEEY

The target of a further assay is ADRM1, Q16186. The protocol: as §1
Another assay addresses ALDH18A1, P54886. As to the method:
as §1

A further assay addresses ATP2A2, P16615. As to the method:
as §1

For another assay, the target named is ATXN10, Q9UBB4. As to the method:
as §1

The target in another assay is CHTOP, Q9Y3Y2. The protocol:
as §1

In another assay the target is CUL4A, Q13619. The protocol:
as §1

A further assay deals with EIF3A, Q14152. The protocol: as §1
For a further assay, the target named is EIF4E, P06730. As to the method:
as §1

Another assay addresses MRPL4, Q9BYD3. The protocol:
as §1

The target of another assay is MRPL50, Q8N5N7. The protocol: as §1
Another assay addresses NAP1L1, P55209. The protocol:
as §1

Another assay concerns the target PTCD3, Q96EY7. As to the method: as §1
A further assay concerns the target RBM8A, Q9Y5S9. As to the method: as §1
The next assay addresses SMARCA5, O60264. As to the method:
as §1

A further assay has as its target SMPD4, Q9NXE4. As to the method:
as §1

Another assay has as its target TFIP11, Q9UBB9. As to the method: as §1
The target of a further assay is TOP2A, P11388. As to the method: as §1
Another assay concerns the target TUBB4A, P04350. As to the method: as §1
In the next assay the target is TUBB6, Q9BUF5. As to the method: as §1
Another assay addresses WDR46, O15213. The protocol:
as §1

The target of a further assay is ACTR1A, P61163. The protocol:
as §1

The next assay deals with DHX15, O43143. As to the method: as §1
The target of the next assay is EWSR1, Q01844. The protocol:
as §1

Another assay addresses FAM98A, Q8NCA5. As to the method:
as §1

A further assay concerns the target GIGYF2, Q6Y7W6. The protocol:
as §1

Another assay deals with GOLPH3L, Q9H4A5. The protocol:
as §1

Another assay addresses GTF2F1, P35269. The protocol:
as §1

The target in the next assay is HSPA4, P34932. The protocol: as §1
Another assay deals with MACF1. As to the method:
as §1

The next assay deals with MEPCE, Q7L2J0. As to the method: as §1
The target of the next assay is MKI67, P46013. As to the method: as §1
The target in another assay is MLEC, Q14165. As to the method:
as §1

In the next assay the target is MRPL49, Q13405. The protocol:
as §1

A further assay deals with NIFK, Q9BYG3. The protocol: as §1
For a further assay, the target named is NUFIP2, Q7Z417. As to the method: as §1
Another assay addresses PDLIM7, Q9NR12. The protocol: as §1
For a further assay, the target named is PFKM, P08237. The protocol:
as §1

A further assay has as its target PSME3, P61289. The protocol: as §1
Another assay has as its target RAB7A, P51149. The protocol:
as §1

The next assay deals with SEC61G, P60059. As to the method:
as §1

The target in the next assay is SEC63, Q9UGP8. The protocol: as §1
Another assay has as its target SNX5, Q9Y5X3. As to the method: as §1
The target in another assay is SSR3, Q9UNL2. As to the method: as §1
A further assay concerns the target TUBA1C, Q9BQE3. The protocol:
as §1

The target in another assay is WDR12, Q9GZL7. The protocol: as §1

Some of the results follow. The list holds hits alone, and they repeat only in part.

As to ASWVSRTSPADVAGP [RP11-432J24.5_2], the “PRISMA enrichment of interactor (log2)” value with ADNP, Q9H2P0 turned out to be 5.54; with ADRM1, Q16186, 4.96; with ALDH18A1, P54886, 4.45; with ATP2A2, P16615, 4.58; with ATXN10, Q9UBB4 it was 8.8; with CHTOP, Q9Y3Y2, 6.43. For the same molecule, the “PRISMA enrichment of interactor (log2)” value with CUL4A, Q13619 stood at 3.97; with EIF3A, Q14152 it was 5.19; with EIF4E, P06730, 5.27; with MRPL4, Q9BYD3 it was 4.1; with MRPL50, Q8N5N7 it was 5.5; with NAP1L1, P55209 it was 5.7. Further, the “PRISMA enrichment of interactor (log2)” value in the assay with PTCD3, Q96EY7 is 5.72; in the assay with RBM8A, Q9Y5S9, 7.98; in the assay with SMARCA5, O60264 it was 4.56; with SMPD4, Q9NXE4, 7.5; in the assay with TFIP11, Q9UBB9 it was 7.11; with TOP2A, P11388, 7.46. For the same molecule, the “PRISMA enrichment of interactor (log2)” value is 5.24 with TUBB4A, P04350; 4.46 with TUBB6, Q9BUF5; 6.4 with WDR46, O15213.
MASVNLSFSFSRPSH [LINC00881]: the “PRISMA enrichment of interactor (log2)” value with ACTR1A, P61163 is 6.46; with DHX15, O43143 it was 4.92; in the assay with EWSR1, Q01844, 6.06; with FAM98A, Q8NCA5, 8.33; with GIGYF2, Q6Y7W6, 4.56; in the assay with GOLPH3L, Q9H4A5, 7.27. Further, the “PRISMA enrichment of interactor (log2)” value with GTF2F1, P35269 worked out at 4.53; with HSPA4, P34932, 4.95; with MACF1, 6.18; with MEPCE, Q7L2J0 it was 5.65; with MKI67, P46013 it was 6.01; with MLEC, Q14165, 5.03. Further, the “PRISMA enrichment of interactor (log2)” value in the assay with MRPL49, Q13405 was found to be 4.37; in the assay with NIFK, Q9BYG3, 5.01; with NUFIP2, Q7Z417 it was 7.55; with PDLIM7, Q9NR12 it was 6.34; with PFKM, P08237, 4.9; with PSME3, P61289, 4.91. The “PRISMA enrichment of interactor (log2)” value is 6.99 with RAB7A, P51149; 8.09 with SEC61G, P60059; 5.71 with SEC63, Q9UGP8; 4.29 with SNX5, Q9Y5X3; 5.42 with SSR3, Q9UNL2; 8.56 with TUBA1C, Q9BQE3. Further, the “PRISMA enrichment of interactor (log2)” value with WDR12, Q9GZL7 is 4.63.

Source of the values: the supplement of paper PMC10032668.
